Source: PubChem BioAssay AID504791 (Drosophila RNAi Screening Center, 2011)
Assay: 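Factors in Argonaute-based small RNA production and activity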 (primary screen). System: Drosophila S2-derived reporter cells. Knock-down reagent: long dsRNA against Drosophila genes, about 150-250 ng dsRNA per well (siRNA assay); about 80-120 ng (miRNA assay). Timing: about 5 days (siRNA assay); about 4 days (miRNA assay). Challenge: copper sulfate induction of reporters: 25 µM (siRNA assay); 200 mM stated (miRNA assay), 1-2 days before reading. Detection: 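Per-well ratio of Renilla over firefly light, expressed relative to that plate's average ratio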. Active means: 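a well was a first-pass pick when its plate-scaled ratio rose above 1.5 (siRNA assay) or 1.6 (miRNA assay), or dropped below 0.6; a gene counted only if two separate dsRNAs agreed on retest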.
The screen tested about 23,000 reagents; below is a random part of those with a known target gene and a result. In the full data, 199 (0.86%) are marked active. 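Plate-scaled ratios behind the calls are not deposited; printed light signals are raw; many rows marked increased or decreased are still called inactive.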 The numbers tell different reagents against one gene apart. Names joined by + are all predicted targets of the reagent. Not stated in the record: the direction of the score.

Gene	reagent	stable siRNA reporter change	miRNA reporter change	stable assay Renilla, run 1 (luminescence)	stable assay firefly, run 1 (luminescence)	activity call
EMC7 (ER membrane protein complex subunit 7)	1			5682	3.20e5	inactive
CG12688 (retired record)	1			3220	3.26e5	inactive
CG12688 (retired record)	2			3916	3.60e5	inactive
side-VIII (sidestep VIII)	1			6819	4.02e5	inactive
side-VIII (sidestep VIII)	2			4847	4.44e5	inactive
side-VIII (sidestep VIII)	3			3968	3.10e5	inactive
side-VIII (sidestep VIII)	4			2511	2.14e5	inactive
CG11378	1			5730	4.24e5	inactive
CG15118	1			11965	4.26e5	inactive
Reck (Reversion-inducing-cysteine-rich protein with kazal motifs)	1			8306	3.09e5	inactive
Reck (Reversion-inducing-cysteine-rich protein with kazal motifs)	2			8495	4.86e5	inactive
CG43736 + CG33692 (retired record)	1	reporter ratio lowered past the hit cutoff		7399	7.80e5	inactive
CG43736 + CG33692 (retired record)	2			6424	3.83e5	inactive
CG30423	1			4726	4.27e5	inactive
CG13813	1			6939	5.31e5	inactive
CG14323	1			7100	5.60e5	inactive
CG33284	1			3835	3.53e5	inactive
CG3558	1			50947	1.58e5	inactive
CG32374	1			7000	5.09e5	inactive
CG3819	1			6899	4.82e5	inactive
CG40191	1			4615	4.63e5	inactive
drl (derailed)	1			17094	1.34e6	inactive
yellow-e3	1			8167	5.14e5	inactive
I-2 (Inhibitor-2)	1			6435	4.11e5	inactive
I-2 (Inhibitor-2)	2			5515	4.02e5	inactive
Proc-R (Proctolin receptor)	1			5315	2.53e5	inactive
Idgf6 (Imaginal disc growth factor 6)	1			11353	4.07e5	inactive
CAH13 (Carbonic anhydrase 13)	1			7246	3.38e5	inactive
sp3 (spermathreecae)	1			6683	3.21e5	inactive
CG33640	1			4932	3.66e5	inactive
SCaMC	1			7415	3.87e5	inactive
SCaMC	2			6752	4.68e5	inactive
CG32277	1			5811	3.15e5	inactive
Gr28a (Gustatory receptor 28a)	1			7272	3.43e5	inactive
CG7443	1			6507	5.02e5	inactive
Ets98B (Ets at 98B)	1			5243	4.17e5	inactive
bc10	1			5279	3.44e5	inactive
CG11865	1			6078	3.71e5	inactive
CG14292	1			6543	4.70e5	inactive
CG30394	1			7570	4.47e5	inactive
CG30394	2			7380	4.37e5	inactive
Adck5 (aarF domain containing kinase 5)	1			5782	3.31e5	inactive
cyc (cycle)	1			6858	4.38e5	inactive
GNBP2 (Gram-negative bacteria binding protein 2)	1			8691	2.96e5	inactive
CG18268 + CG3014	1			7096	4.14e5	inactive
CG31029	1			7359	4.41e5	inactive
Vamp7 (Vesicle-associated membrane protein 7)	1			6407	4.27e5	inactive
Ran-like	1			9135	2.69e5	inactive
CG32572	1			6842	3.97e5	inactive
CG32572	2			6326	4.54e5	inactive
Spn55B (Serpin 55B)	1			4547	4.08e5	inactive
Spn55B (Serpin 55B)	2			9281	4.97e5	inactive
CG13937	1			3931	4.24e5	inactive
CG15429	1			8287	5.55e5	inactive
CG12910	1			9622	5.67e5	inactive
CG34165	1			4587	3.06e5	inactive
HHEX (Hematopoietically expressed homeobox)	1		reporter ratio lowered past the hit cutoff	8737	4.08e5	inactive
ocn (ocnus)	1			6694	5.20e5	inactive
Pis (Phosphatidylinositol synthase)	1			5235	3.50e5	inactive
Exo70 (Exocyst 70)	1			7338	4.12e5	inactive
btsz (bitesize)	1			5651	2.69e5	inactive
btsz (bitesize)	2			7343	3.53e5	inactive
Dhc98D (Dynein heavy chain at 89D)	1			6083	3.59e5	inactive
Polr3G (RNA polymerase III subunit G)	1			7815	5.19e5	inactive
insv (insensitive)	1			7695	3.78e5	inactive
Eo (Ecdysone oxidase)	1			6346	5.49e5	inactive
Pop2	1			7083	4.33e5	inactive
fs(1)h (female sterile (1) homeotic)	1			4831	4.39e5	inactive
CG34454	1			5351	4.16e5	inactive
GABA-B-R3 (metabotropic GABA-B receptor subtype 3)	1			8075	5.00e5	inactive
CG2201	1			75796	2.71e5	inactive
Crtp (Caldesmon-related protein)	1			5479	3.49e5	inactive
CG11360	1			8351	3.42e5	inactive
CG11360	2			6198	3.12e5	inactive
CG33099	1			8324	3.46e5	inactive
CG13144	1			7175	2.76e5	inactive
CG8778	1			4959	2.87e5	inactive
Rhp (Rhophilin)	1			5139	4.76e5	inactive
CG7695	1			7587	5.52e5	inactive
CG30265	1			9403	5.48e5	inactive
CAH16 (Carbonic anhydrase 16)	1			7627	4.28e5	inactive
Try29F (Trypsin 29F)	1		reporter ratio raised past the hit cutoff	9772	5.48e5	inactive
Shaw (Shaker cognate w)	1			7195	4.49e5	inactive
Shaw (Shaker cognate w)	2			4092	4.41e5	inactive
Shaw (Shaker cognate w)	3			9043	4.96e5	inactive
CG1688	1			6739	3.12e5	inactive
CG1688	2	reporter ratio raised past the hit cutoff		1860	58526	inactive
SLIRP2 (SRA stem-loop interacting RNA binding protein 2)	1			6774	4.33e5	inactive
Dif (Dorsal-related immunity factor)	1			7995	3.49e5	inactive
Phf7 (PHD finger protein 7)	1			6699	3.81e5	inactive
rno (rhinoceros)	1			5754	3.40e5	inactive
fd3F (retired record)	1			5443	2.82e5	inactive
fd3F (retired record)	2			5003	2.83e5	inactive
CG6236	1			7952	3.97e5	inactive
Tsp42Ei (Tetraspanin 42Ei)	1			6188	3.69e5	inactive
azot (ahuizotl)	1			6639	4.92e5	inactive
Fkbp59 (FK506-binding protein 59kD)	1			7272	3.98e5	inactive
LamC (Lamin C)	1			7950	4.12e5	inactive
Pld3 (Phospholipase D family member 3)	1			10816	4.33e5	inactive
Peritrophin-15a	1			6155	3.64e5	inactive
CG30015	1			4579	3.55e5	inactive
CG30015	2			7118	3.61e5	inactive
CG30015	3			7315	3.49e5	inactive
Hen1 (Hen1 methyltransferase)	1			8946	5.16e5	inactive
Hen1 (Hen1 methyltransferase)	2			7075	4.79e5	inactive
peng (penguin)	1			5722	4.55e5	inactive
